Reference: patent US5574008A (Eli Lilly and Company, priority 1994, dated 1996)
HELM strings list residues between dots; [ac] is acetyl, [am] amide, other brackets name non-standard units.

Columns and labels:
[1] = general procedure: Boc solid-phase peptide synthesis; MBHA resin (0.77 mmol/g) for C-terminal amides; PAM resin for C-terminal acids; symmetric anhydride (DCC initiated) or HOBT activation; double coupling; settings: whole synthesis, scale of the general procedure 0.5 mmol
[2] = general procedure: Boc solid-phase peptide synthesis; MBHA resin; symmetric anhydride (DCC initiated) or HOBT activation; double coupling; settings: whole synthesis, scale 0.5 mmol

| Substance | isolated yield [1] [%] | final HPLC purity ([2]; analytical HPLC) [%] | isolated mass [2] [mg] | isolated yield [2] [%] |
| --- | --- | --- | --- | --- |
| GLP-1(R26)(9-36)NH2 (SEQ ID NO:13) (EGTFTSDVSSYLEGQAAKEFIAWLVRGR; C-terminal amide) | 4.1 | – | – | – |
| PEPTIDE1{A.E.G.T.F.T.S.D.V.S.S.Y.L.E.G.Q.A.A.K.E.F.I.A.W.L.V.K.G.R.G}$$$$V2.0 | 13 | – | – | – |
| PEPTIDE1{E.G.T.F.T.S.D.V.S.S.Y.L.E.G.Q.A.A.K.E.F.I.A.W.L.V.K.G.R.G}$$$$V2.0 | 11 | – | – | – |
| PEPTIDE1{E.G.T.F.T.S.D.V.S.S.Y.L.E.G.Q.A.A.K.E.F.I.A.W.L.V.K.G.R.[am]}$$$$V2.0 | – | 60 | 125 | 11 |
